Out of some 320,000 compounds screened, about 22,000 (6.9%) were called active. The inconclusive results got no clear call from the source; some entries with a clear call stand among them for comparison. The call rests on the fitted dose curve; in most records, active means well fitted inhibition curve with a large enough effect; inconclusive means small, poorly fitted or top-dose-only effect, or another doubt; inactive means no such curve, though single readings can be large or run the other way. A potency beside an inconclusive call is a rough fit, not a confirmed value.
Experiment: Primary qHTS for delayed death inhibitors of the malarial parasite plastid, 96 hour incubation
Conditions: P. falciparum luciferase reporter growth; series mostly up to 28.7 µM; activity change, negative = inhibition: at the top concentration
Outline: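 Two parasite generations (96 h, 37 C, 5% CO2) of compound exposure in infected erythrocytes (0.05% parasitemia, 2% hematocrit). Luciferase-reporter P. falciparum; decreased luminescence indicates inhibited growth, aimed at apicoplast-acting delayed death.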
On the % scale 0 is the no-effect control and ±100 the full control effect; potency means the concentration at half of the fitted maximal effect.

Q: Which Potency does the source give for Cc1ccc(SCc2cc(=O)[nH]c(Nc3nc(C)c4ccc(C)cc4n3)n2)cc1 here?
A: Its Potency is inconclusive: 10.4 µM [inhibitor, single point].

Q: For Cc1c(C(=O)NC2CCN(Cc3ccccc3)C2)oc2ccc(Br)cc12 (stereo not drawn), which “activity change, negative = inhibition” value is on record?
A: Its value is inactive: 24.5%.

Q: Which Potency does the source give for COc1cc(C(C)=O)ccc1OCC(=O)N1CCc2ccccc2C1 here?
A: The Potency was inconclusive: 11.7 µM [inhibitor, single point].

Q: Which Potency does the source give for CC(=O)c1ccc2c(c1)C1C(Cl)C(Sc3ccccc3[N+](=O)[O-])CC1C(c1ccccc1)N2 (stereo not drawn) here?
A: The Potency was inconclusive: 10.4 µM [inhibitor, single point].

Q: For COc1cc(S(=O)(=O)N(Cc2ccccn2)Cc2ccccc2Cl)ccc1-n1cnnn1, which Potency is on record?
A: The Potency was inconclusive: 4.65 µM [inhibitor, partial curve, poor fit].

Q: With Fc1ccc(NC(=S)N/N=C/c2cccc(Br)c2)c(F)c1 as the molecule, how does the Potency read?
A: The Potency was inconclusive: 18.5 µM [inhibitor, single point].

Q: Which Potency does the source give for COC(=O)N/N=C(C)\C=C\c1ccco1 here?
A: The Potency was inconclusive: 11.7 µM [inhibitor, single point].

Q: For CC(=O)Nc1cccc(C)c1, which Potency is on record?
A: Its Potency is inconclusive: 2.94 µM [inhibitor, single point].

Q: Which “activity change, negative = inhibition” value does the source give for COC(=O)c1ccccc1NC(=O)c1cccc(NC(=O)c2ccc(Br)o2)c1C here?
A: Its value is inactive: 2.59%.

Q: For O=c1oc2cc(Oc3c([N+](=O)[O-])cc(C(F)(F)F)cc3[N+](=O)[O-])ccc2c2c1CCCC2, which Potency is on record?
A: Its Potency is inconclusive: 11.7 µM [inhibitor, partial curve].

Q: Which “activity change, negative = inhibition” value does the source give for COc1ccc(-c2cc(C(=O)Nc3ccccc3F)on2)cc1 here?
A: The value was inactive: 89%.

Q: With O=S1(=O)CCO[C@H]2Cc3ccccc3[C@H]2N1Cc1cccc(C(F)(F)F)c1 as the molecule, how does the Potency read?
A: The Potency was inconclusive: 10.4 µM [inhibitor, single point].

Q: Which Potency does the source give for CC[C@@]1(O)C(=O)OCc2c1cc1n(c2=O)Cc2cc3c(CN(C)C)c(O)ccc3nc2-1 here?
A: Its Potency is active: 10.7 µM.

Q: With CCOc1ccccc1NC1=C(Cl)C(=O)N(c2ccc(OC)cc2)C1=O as the molecule, how does the “activity change, negative = inhibition” value read?
A: The value was inactive: 35.1%.

Q: With O=C(NC1CC(=O)N(c2ccccc2)C1)C(=O)c1c[nH]c2ccccc12 (stereo not drawn) as the molecule, how does the “activity change, negative = inhibition” value read?
A: The value was inactive: 24.3%.

Q: For CCCC/C(C)=N/NC(=O)CN(c1ccc(Br)cc1)S(=O)(=O)c1ccccc1, which “activity change, negative = inhibition” value is on record?
A: The value was inactive: -26.7%.

Q: For CCCCNC(=O)CSc1nc2ccsc2c(=O)n1C1CCN(C(=O)OCC)CC1, which Potency is on record?
A: Its Potency is active: 2.08 µM.

Q: For COc1ccc(N=Cc2c(O)[nH]c3ccccc23)cc1OC, which Potency is on record?
A: Its Potency is inconclusive: 9.28 µM [inhibitor, single point].

Q: Which Potency does the source give for Cc1ccn(CCC(=O)NC2CC(C)(C)Cc3c2cnn3-c2ccccc2C)n1 (stereo not drawn) here?
A: Its Potency is inconclusive: 11.7 µM [inhibitor, single point].

Q: With COc1ccc(N2CC(C(=O)OCC(=O)Nc3cccc(C)c3C)CC2=O)cc1 (stereo not drawn) as the molecule, how does the “activity change, negative = inhibition” value read?
A: Its value is inactive: 0%.

Q: For CCOc1cc(/C=C2\SC(=Nc3ccccc3)N(c3ccccc3)C2=O)ccc1OCC(=O)O, which Potency is on record?
A: Its Potency is inconclusive: 10.4 µM [inhibitor, single point].

Q: Which “activity change, negative = inhibition” value does the source give for COc1ccc2c(c1OC)C(=O)N(c1cccc(C)c1)C2=O here?
A: The value was inactive: 0%.

Q: For CCOc1c(OC(C)=O)ccc(/C=C/c2ccc3cccc(OC)c3n2)c1[N+](=O)[O-], which “activity change, negative = inhibition” value is on record?
A: Its value is inactive: -2.83%.

Q: Which Potency does the source give for CC(C(=O)Nc1ccc(F)c(F)c1)N1CCN(C)CC1 (stereo not drawn) here?
A: The Potency was inconclusive: 4.65 µM [inhibitor, partial curve].

Q: Which Potency does the source give for COc1ccc(NS(=O)(=O)c2ccc(NC(=S)NC(=O)/C=C/c3ccc(C)cc3)cc2)nn1 here?
A: The Potency was inconclusive: 5.86 µM [inhibitor, partial curve, poor fit].

Q: Which Potency does the source give for CCOC(=O)C1=C(CC)Nc2ccccc2N=C1NC(=O)Nc1ccc(Cl)c(Cl)c1 here?
A: Its Potency is active: 2.62 µM.

Q: With O=C(c1ccc(-n2cncn2)c([N+](=O)[O-])c1)N1CCN(S(=O)(=O)c2ccc(Br)cc2)CC1 as the molecule, how does the Potency read?
A: Its Potency is inconclusive: 9.28 µM [inhibitor, single point].

Q: With CC1(C)Cc2c(C#N)c(NCCN3CCOCC3)nc(-c3ccco3)c2CO1 as the molecule, how does the Potency read?
A: Its Potency is active: 10.4 µM.

Q: Which Potency does the source give for CN(C)CCCN(C(=O)c1ccc(S(=O)(=O)N2CCCC2)cc1)c1nc2ccc(Br)cc2s1 here?
A: Its Potency is inconclusive: 11.7 µM [inhibitor, single point].

Q: With CC1CCN(CCCCOc2ccccc2Br)CC1 as the molecule, how does the Potency read?
A: Its Potency is inconclusive: 11.7 µM [inhibitor, single point].

Q: Which Potency does the source give for CN(C)c1ccnc(Nc2ccc(F)cc2)c1C#N here?
A: The Potency was inconclusive: 0.131 µM [inhibitor, full curve, poor fit].

Q: With CC1CCN(CCCNC(=O)c2cc3c(=O)n(C)c4ccccc4c3n2C)CC1 as the molecule, how does the Potency read?
A: Its Potency is active: 7.38 µM.

Q: Which Potency does the source give for CCc1ccc(C(=O)CSc2nc3cc(S(=O)(=O)N4CCOCC4)ccc3n2CC)cc1 here?
A: The Potency was active: 10.4 µM.

Q: Which “activity change, negative = inhibition” value does the source give for COc1ccc(C(=O)N/C(=C\c2cn(S(=O)(=O)N(C)C)c3ccccc23)C(=O)NCCN2CCOCC2)cc1OC here?
A: The value was inactive: 9.79%.

Q: Which Potency does the source give for CCOc1ccccc1-c1nc(-c2ccncc2)no1 here?
A: The Potency was inconclusive: 1.85 µM [inhibitor, single point].

Q: With CCc1nc(NC(=O)c2sc(C)nc2C)sc1C(=O)OC as the molecule, how does the Potency read?
A: The Potency was inconclusive: 13.1 µM [inhibitor, partial curve].

Q: With O=C1CCc2cc(S(=O)(=O)NC(Cc3ccccc3)C(=O)NCCC3=CCCCC3)ccc2N1 (stereo not drawn) as the molecule, how does the Potency read?
A: Its Potency is inconclusive: 10.4 µM [inhibitor, partial curve, poor fit].

Q: Which Potency does the source give for Cc1ccc(-n2c(O)c(C=NC3CCCC3)c(=O)[nH]c2=O)c(C)c1 here?
A: Its Potency is inconclusive: 8.28 µM [inhibitor, partial curve, poor fit].

Q: Which Potency does the source give for Cc1ccc(NS(=O)(=O)c2cc(C(=O)NCc3cccnc3)ccc2C)cc1 here?
A: Its Potency is active: 8.28 µM.

Q: Which Potency does the source give for Cn1c(SCC(=O)NC2CCCCC2)nnc1-c1ccncc1 here?
A: Its Potency is inconclusive: 20.8 µM [inhibitor, partial curve, poor fit].

Q: For COc1cc2ncnc(NCc3ccccc3F)c2cc1OC, which Potency is on record?
A: Its Potency is inconclusive: 18.5 µM [inhibitor, single point].

Q: Which Potency does the source give for O=C(N/N=C/c1ccc(O)c(Br)c1)c1cc2c(ccc3ccccc32)o1 here?
A: The Potency was inconclusive: 18.5 µM [inhibitor, single point].

Q: For CC1N(O)C(c2ccc(Cl)cc2Cl)N(O)C1(C)C (stereo not drawn), which Potency is on record?
A: Its Potency is inconclusive: 0.233 µM [inhibitor, full curve, poor fit].

Q: For COc1ccc(N2C(=O)C3CCCN3C2c2cccc(C)c2)cc1 (stereo not drawn), which Potency is on record?
A: The Potency was inconclusive: 20.8 µM [inhibitor, single point].

Q: With Cn1ncc2cc(NC(=S)NC(=O)c3ccccc3)ccc21 as the molecule, how does the “activity change, negative = inhibition” value read?
A: Its value is inactive: 77%.

Q: Which Potency does the source give for Cc1c(C=O)c2cc(OCc3ccccc3)ccc2n1C here?
A: Its Potency is inconclusive: 11.7 µM [inhibitor, single point].

Q: With CCOc1ccc(NC(=O)C(CC)n2nc(C)c3c(C)n(-c4ccccc4)nc3c2=O)cc1 (stereo not drawn) as the molecule, how does the Potency read?
A: The Potency was active: 13.1 µM.

Q: Which Potency does the source give for COc1ccc(-n2ccsc2=S)cc1 here?
A: The Potency was inconclusive: 20.8 µM [inhibitor, partial curve, poor fit].

Q: For O=C(CN1C(=O)/C(=C/c2ccccc2F)Sc2ccccc21)NCCCN1CCOCC1, which “activity change, negative = inhibition” value is on record?
A: The value was inactive: -58.8%.

Q: With COc1cccc(Nc2nc(-c3sc(NC(=O)c4ccccc4)nc3C)cs2)c1 as the molecule, how does the Potency read?
A: The Potency was active: 4.15 µM.

Q: Which Potency does the source give for COc1ccccc1C1CC(=O)Nc2c1c(=O)n(C)c(=O)n2C (stereo not drawn) here?
A: Its Potency is inconclusive: 4.15 µM [inhibitor, partial curve, poor fit].

Q: With O=C(CNC(=O)c1ccccc1Cl)Nc1ccc(Br)cc1C(=O)c1ccccc1 as the molecule, how does the Potency read?
A: The Potency was inconclusive: 18.5 µM [inhibitor, single point].

Q: Which “activity change, negative = inhibition” value does the source give for O=C1CCC([N+](=O)[O-])C(c2cc3c(cc2Cl)OCO3)N1 (stereo not drawn) here?
A: Its value is inactive: 15.7%.

Q: With Cc1nn(-c2ccccc2)c2nc(-c3cccs3)cc(C(=O)NN)c12 as the molecule, how does the Potency read?
A: The Potency was inconclusive: 0.415 µM [inhibitor, partial curve, poor fit].

Q: With CC(=O)c1ccc(S(=O)(=O)NCc2ccc(C(=O)NCC(c3ccccc3)N(C)C)cc2)cc1 (stereo not drawn) as the molecule, how does the Potency read?
A: Its Potency is inconclusive: 7.38 µM [inhibitor, partial curve, poor fit].

Q: Which Potency does the source give for CCCOC(=O)c1c(NC(=O)CCCn2nc([N+](=O)[O-])cc2C)sc(C(=O)OC)c1C here?
A: The Potency was inconclusive: 9.28 µM [inhibitor, single point].

Q: With NS(=O)(=O)c1ccc(NC(=O)c2cc(=O)c3ccccc3o2)cc1 as the molecule, how does the Potency read?
A: Its Potency is inconclusive: 11.7 µM [inhibitor, partial curve, poor fit].

Q: Which “activity change, negative = inhibition” value does the source give for O=C(CC1C(=O)NCCN1C(=O)c1ccc([N+](=O)[O-])cc1)Nc1ccc(F)cc1 (stereo not drawn) here?
A: The value was inactive: 6.88%.

Q: With O=C(CCc1nnc2ccc(NCc3ccccc3Cl)nn12)N1CCC2(CC1)OCCO2 as the molecule, how does the Potency read?
A: Its Potency is inconclusive: 13.1 µM [inhibitor, partial curve, poor fit].

Q: Which Potency does the source give for CCn1c(SCc2ccc(C)cc2)nnc1-c1cnccn1 here?
A: Its Potency is inconclusive: 0.657 µM [inhibitor, full curve, poor fit].

Q: For CCOc1ccc(NC(=O)CSc2nnnn2C2CCCC2)cc1, which “activity change, negative = inhibition” value is on record?
A: The value was inactive: -2.64%.

Q: Which “activity change, negative = inhibition” value does the source give for CCCCOC(=O)NC(NCC(O)c1ccccc1)(C(F)(F)F)C(F)(F)F (stereo not drawn) here?
A: Its value is inactive: 1.05%.

Q: Which Potency does the source give for COc1ccc(C(CNC(=O)c2cccc(S(=O)(=O)N(C)c3ccccc3)c2)N2CCCC2)cc1 (stereo not drawn) here?
A: The Potency was inconclusive: 11.7 µM [inhibitor, single point].

Q: With CC(=O)c1cc(F)ccc1OCC(=O)N1CCCc2ccccc21 as the molecule, how does the Potency read?
A: Its Potency is inconclusive: 4.65 µM [inhibitor, partial curve].

Q: Which “activity change, negative = inhibition” value does the source give for COCCNC(=O)COc1ccccc1C here?
A: The value was inactive: 30.4%.

Q: With CCCN(CCC)c1c([N+](=O)[O-])c(=O)oc2ccccc12 as the molecule, how does the Potency read?
A: The Potency was inconclusive: 5.86 µM [inhibitor, partial curve].

Q: Which Potency does the source give for Cc1cc(NC(=NC2CC2)c2ccccc2)n(-c2ccccc2)n1 here?
A: Its Potency is inconclusive: 2.33 µM [inhibitor, full curve, poor fit].

Q: For CCN1c2ccc(S(=O)(=O)N3CCOCC3)cc2N(Cc2ccc(OC)cc2)C1C (stereo not drawn), which Potency is on record?
A: Its Potency is inconclusive: 10.4 µM [inhibitor, single point].

From PubChem BioAssay AID504834 (National Center for Advancing Translational Sciences (NCATS), 2011)
